The other results are listed elsewhere or left out. Small differences around the control level are noise.
The targets below were run with CN[C@@H]1C[C@H]2O[C@@](C)([C@@H]1OC)n1c3ccccc3c3c4c(c5c6ccccc6n2c5c31)C(=O)NC4 [staurosporine] (assay: log2 fold change of tryptic peptide abundance, ligand vs vehicle (limited proteolysis) (log2 ratio); higher = more trypsin-susceptible (destabilized)). Conditions: ligand concentration: 20 uM; sample: mouse liver crude lysate; replicate design: treated separately.

The chains behind the UniProt entries cited, without tags or fusion partners. Where a name states a change or a piece, a line headed by the entry shows the natural chain unless it says otherwise.
UniProt Q9CY57: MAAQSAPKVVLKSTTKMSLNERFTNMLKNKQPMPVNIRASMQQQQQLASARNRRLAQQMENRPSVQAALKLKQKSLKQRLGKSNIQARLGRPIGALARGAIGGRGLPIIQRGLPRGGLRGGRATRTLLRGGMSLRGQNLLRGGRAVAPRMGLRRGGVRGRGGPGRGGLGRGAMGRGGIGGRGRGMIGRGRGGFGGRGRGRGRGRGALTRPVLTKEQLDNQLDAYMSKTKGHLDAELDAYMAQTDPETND
UniProt Q9CXF4: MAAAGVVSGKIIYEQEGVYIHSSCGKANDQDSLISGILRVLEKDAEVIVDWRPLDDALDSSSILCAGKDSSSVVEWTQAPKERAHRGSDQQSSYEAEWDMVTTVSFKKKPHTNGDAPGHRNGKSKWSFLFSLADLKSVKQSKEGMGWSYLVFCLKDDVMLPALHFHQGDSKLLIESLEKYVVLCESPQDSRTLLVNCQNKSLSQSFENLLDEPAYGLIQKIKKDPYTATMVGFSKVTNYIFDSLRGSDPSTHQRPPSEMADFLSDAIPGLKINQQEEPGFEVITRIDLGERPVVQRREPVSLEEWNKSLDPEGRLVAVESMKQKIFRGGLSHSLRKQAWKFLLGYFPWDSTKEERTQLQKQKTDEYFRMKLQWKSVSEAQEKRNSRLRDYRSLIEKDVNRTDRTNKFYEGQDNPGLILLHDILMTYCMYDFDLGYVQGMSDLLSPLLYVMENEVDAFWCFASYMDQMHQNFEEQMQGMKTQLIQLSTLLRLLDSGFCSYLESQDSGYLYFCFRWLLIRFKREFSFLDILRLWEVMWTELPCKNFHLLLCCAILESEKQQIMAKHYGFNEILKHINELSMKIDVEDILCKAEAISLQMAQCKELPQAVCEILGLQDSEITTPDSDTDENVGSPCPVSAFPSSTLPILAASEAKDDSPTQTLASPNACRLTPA
UniProt Q9CWU2: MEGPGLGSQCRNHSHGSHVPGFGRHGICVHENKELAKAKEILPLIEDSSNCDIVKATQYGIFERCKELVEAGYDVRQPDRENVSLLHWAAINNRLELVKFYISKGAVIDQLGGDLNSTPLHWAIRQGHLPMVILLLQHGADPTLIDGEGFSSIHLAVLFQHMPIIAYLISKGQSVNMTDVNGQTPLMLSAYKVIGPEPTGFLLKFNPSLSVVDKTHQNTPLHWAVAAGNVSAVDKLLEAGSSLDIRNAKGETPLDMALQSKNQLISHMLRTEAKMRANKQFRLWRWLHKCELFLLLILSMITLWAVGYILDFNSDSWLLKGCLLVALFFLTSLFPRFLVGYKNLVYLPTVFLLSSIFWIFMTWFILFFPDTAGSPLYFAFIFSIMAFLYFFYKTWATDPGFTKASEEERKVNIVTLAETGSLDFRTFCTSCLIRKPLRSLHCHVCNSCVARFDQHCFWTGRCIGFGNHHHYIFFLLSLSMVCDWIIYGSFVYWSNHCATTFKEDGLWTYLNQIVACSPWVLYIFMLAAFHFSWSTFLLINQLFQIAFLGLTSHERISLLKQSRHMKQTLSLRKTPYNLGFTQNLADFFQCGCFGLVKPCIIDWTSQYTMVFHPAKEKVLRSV
UniProt Q9CY18: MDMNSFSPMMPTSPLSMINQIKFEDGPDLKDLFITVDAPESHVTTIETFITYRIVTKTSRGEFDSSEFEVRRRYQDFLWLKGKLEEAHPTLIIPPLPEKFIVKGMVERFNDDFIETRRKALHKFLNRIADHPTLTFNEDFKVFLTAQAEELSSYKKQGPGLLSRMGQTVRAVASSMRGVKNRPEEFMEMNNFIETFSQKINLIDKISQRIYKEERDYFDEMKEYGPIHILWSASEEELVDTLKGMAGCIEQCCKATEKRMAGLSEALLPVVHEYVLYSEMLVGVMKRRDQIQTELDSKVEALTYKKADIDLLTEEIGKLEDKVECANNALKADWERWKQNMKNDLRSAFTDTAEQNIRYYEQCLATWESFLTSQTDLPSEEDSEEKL
UniProt Q9CSV6: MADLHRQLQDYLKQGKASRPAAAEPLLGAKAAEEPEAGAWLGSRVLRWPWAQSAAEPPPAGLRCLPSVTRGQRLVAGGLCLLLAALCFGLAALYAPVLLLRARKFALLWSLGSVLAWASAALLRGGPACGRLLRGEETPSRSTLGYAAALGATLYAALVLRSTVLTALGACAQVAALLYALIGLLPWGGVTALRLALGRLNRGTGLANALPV
UniProt Q9CY27: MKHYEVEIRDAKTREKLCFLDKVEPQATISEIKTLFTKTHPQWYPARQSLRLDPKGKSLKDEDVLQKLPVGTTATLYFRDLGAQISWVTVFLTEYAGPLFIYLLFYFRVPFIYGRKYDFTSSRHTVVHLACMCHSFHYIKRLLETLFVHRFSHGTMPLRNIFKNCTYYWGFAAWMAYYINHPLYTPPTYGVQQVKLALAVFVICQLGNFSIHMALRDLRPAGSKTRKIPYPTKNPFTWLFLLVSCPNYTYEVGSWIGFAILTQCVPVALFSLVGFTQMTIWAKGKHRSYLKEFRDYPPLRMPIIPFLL
UniProt Q9CYT6, whole entry: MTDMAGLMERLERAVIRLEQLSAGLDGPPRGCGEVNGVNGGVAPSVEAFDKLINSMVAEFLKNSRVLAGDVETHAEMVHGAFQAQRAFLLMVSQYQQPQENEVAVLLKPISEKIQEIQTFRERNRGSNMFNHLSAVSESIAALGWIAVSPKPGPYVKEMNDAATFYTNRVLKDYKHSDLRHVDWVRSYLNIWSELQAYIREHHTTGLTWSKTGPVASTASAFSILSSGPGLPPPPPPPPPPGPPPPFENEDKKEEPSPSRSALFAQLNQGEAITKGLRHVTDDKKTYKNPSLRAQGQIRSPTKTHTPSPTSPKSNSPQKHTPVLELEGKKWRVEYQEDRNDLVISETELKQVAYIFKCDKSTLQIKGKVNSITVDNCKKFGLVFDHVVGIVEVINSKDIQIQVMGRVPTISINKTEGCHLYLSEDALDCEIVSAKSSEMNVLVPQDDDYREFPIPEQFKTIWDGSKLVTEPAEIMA
UniProt Q9CZW5, whole entry: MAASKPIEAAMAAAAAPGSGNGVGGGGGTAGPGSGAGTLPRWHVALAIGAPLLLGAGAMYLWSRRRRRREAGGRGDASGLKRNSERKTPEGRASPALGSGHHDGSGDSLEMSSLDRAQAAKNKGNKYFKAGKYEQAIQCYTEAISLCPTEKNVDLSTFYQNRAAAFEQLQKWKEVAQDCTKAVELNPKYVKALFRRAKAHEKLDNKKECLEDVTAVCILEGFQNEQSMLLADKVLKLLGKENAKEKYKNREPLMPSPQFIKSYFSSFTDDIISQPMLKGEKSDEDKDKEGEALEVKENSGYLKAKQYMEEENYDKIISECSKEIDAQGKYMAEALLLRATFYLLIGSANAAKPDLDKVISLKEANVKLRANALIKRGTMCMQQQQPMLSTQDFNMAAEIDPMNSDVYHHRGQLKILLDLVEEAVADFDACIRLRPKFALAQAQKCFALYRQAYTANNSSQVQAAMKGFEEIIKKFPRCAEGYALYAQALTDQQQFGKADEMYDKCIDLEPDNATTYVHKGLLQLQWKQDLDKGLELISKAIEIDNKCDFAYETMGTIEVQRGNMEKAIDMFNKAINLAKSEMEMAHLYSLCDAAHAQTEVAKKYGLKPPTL
UniProt Q9D0P8: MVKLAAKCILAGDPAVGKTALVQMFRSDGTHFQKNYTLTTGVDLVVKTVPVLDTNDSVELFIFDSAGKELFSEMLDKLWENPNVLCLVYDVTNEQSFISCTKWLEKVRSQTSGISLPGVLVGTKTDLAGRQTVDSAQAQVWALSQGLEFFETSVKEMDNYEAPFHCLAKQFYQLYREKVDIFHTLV
UniProt Q9CZB3: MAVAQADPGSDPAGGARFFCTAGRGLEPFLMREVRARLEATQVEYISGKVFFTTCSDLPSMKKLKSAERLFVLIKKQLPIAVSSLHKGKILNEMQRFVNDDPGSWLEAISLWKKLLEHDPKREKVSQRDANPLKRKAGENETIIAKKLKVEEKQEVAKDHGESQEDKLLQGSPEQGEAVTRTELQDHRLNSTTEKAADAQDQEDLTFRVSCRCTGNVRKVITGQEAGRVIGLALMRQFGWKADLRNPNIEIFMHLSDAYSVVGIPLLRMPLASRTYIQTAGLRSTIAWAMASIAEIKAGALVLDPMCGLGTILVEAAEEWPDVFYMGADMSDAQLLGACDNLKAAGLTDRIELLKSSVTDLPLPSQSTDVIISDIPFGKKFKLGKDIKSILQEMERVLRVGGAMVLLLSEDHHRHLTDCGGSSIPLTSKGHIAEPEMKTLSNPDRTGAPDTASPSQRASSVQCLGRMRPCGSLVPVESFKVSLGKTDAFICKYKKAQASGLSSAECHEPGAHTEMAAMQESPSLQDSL
UniProt Q9CZS1: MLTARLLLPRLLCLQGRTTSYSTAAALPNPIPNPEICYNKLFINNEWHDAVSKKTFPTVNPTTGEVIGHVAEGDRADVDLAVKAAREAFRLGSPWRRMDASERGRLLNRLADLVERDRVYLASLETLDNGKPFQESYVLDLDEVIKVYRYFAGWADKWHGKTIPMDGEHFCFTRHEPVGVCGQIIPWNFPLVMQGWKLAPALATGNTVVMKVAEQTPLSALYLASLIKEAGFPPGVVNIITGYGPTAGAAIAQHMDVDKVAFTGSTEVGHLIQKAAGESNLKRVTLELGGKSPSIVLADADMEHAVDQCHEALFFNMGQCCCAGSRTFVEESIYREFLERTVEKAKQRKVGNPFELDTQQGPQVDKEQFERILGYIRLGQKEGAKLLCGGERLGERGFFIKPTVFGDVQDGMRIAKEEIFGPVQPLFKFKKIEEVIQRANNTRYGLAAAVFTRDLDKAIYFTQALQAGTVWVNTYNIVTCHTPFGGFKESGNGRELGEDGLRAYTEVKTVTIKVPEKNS
UniProt Q9CY34: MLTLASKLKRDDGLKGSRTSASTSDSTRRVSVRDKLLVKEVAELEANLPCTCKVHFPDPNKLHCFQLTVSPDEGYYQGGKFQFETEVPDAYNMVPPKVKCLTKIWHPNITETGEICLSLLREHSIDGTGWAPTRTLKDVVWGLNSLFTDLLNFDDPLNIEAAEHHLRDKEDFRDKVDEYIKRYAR
UniProt Q9CS42: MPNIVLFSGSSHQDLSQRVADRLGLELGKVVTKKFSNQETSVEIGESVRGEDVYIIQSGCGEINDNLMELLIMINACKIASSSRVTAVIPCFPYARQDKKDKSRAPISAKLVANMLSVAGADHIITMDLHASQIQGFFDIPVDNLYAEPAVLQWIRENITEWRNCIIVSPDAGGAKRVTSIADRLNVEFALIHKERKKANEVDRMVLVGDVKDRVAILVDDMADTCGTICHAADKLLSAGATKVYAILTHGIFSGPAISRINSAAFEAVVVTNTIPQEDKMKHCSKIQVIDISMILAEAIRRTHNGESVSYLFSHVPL
UniProt Q9CRT8: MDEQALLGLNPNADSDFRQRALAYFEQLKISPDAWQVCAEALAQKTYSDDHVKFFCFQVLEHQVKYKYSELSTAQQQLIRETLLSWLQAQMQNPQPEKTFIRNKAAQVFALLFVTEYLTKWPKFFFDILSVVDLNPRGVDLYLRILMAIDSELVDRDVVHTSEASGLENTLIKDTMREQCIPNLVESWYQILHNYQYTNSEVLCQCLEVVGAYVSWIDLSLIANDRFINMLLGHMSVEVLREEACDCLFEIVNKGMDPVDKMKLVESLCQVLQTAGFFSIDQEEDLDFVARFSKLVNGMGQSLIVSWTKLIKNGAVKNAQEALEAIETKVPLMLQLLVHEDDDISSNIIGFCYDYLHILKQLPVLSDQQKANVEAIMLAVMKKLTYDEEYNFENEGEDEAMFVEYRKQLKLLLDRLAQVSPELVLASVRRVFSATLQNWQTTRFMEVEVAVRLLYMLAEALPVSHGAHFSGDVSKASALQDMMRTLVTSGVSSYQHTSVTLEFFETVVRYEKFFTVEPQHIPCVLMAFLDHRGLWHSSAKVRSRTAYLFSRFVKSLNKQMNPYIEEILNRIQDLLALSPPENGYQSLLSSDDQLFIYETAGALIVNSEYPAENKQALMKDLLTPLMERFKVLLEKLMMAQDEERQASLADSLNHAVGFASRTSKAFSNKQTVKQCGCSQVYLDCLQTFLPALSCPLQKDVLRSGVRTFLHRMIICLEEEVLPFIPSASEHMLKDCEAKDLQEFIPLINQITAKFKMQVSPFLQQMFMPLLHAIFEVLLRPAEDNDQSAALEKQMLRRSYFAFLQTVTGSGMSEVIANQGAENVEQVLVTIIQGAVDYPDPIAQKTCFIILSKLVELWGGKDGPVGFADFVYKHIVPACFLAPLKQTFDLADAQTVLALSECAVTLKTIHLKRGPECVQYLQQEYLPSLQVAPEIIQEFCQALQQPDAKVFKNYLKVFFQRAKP
UniProt Q9CYX7: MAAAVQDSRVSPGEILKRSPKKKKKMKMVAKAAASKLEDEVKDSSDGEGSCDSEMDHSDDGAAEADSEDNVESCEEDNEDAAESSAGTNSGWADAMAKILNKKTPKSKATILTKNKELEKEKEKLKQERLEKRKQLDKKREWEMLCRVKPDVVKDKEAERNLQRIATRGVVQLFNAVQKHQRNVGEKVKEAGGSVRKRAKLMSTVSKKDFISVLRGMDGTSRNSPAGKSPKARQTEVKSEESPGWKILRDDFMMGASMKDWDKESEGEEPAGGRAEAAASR

**Q.** With “UniProt Q9CXX9 (peptide sequence: THRPMAPK, peptide start residue: 228)” as the target, how does the log2 fold change read?
**A.** -0.351

**Q.** Which log2 fold change does the source give for “UniProt Q9CY57 (peptide sequence: QPMPVNIR, peptide start residue: 31)” here?
**A.** 0.195

**Q.** “UniProt Q9D0F4 (peptide sequence: NGLSHSLSGFSQSSR, peptide start residue: 52)” was tested. Which log2 fold change did it give?
**A.** -0.166

**Q.** Which log2 fold change does the source give for “UniProt Q9CXF4 (peptide sequence: HYGFNEILK, peptide start residue: 564)” here?
**A.** 0.282

**Q.** Which log2 fold change does the source give for “UniProt Q9CWU2 (peptide sequence: HGICVHENK, peptide start residue: 25)” here?
**A.** 0.0809

**Q.** Which log2 fold change does the source give for “UniProt Q9CVD2 (peptide sequence: EHWFTVR, peptide start residue: 118)” here?
**A.** 0.217

**Q.** “UniProt Q9CXT6 (peptide sequence: VVAVLQTHQLPGKQPAR, peptide start residue: 138)” was tested. Which log2 fold change did it give?
**A.** 0.0238

**Q.** “UniProt Q9CY18 (peptide sequence: GEFDSSEFEVR, peptide start residue: 61)” was tested. Which log2 fold change did it give?
**A.** -0.436

**Q.** For “UniProt Q9CSV6 (peptide sequence: GGPACGRLLR, peptide start residue: 125)”, which log2 fold change is on record?
**A.** 0.155

**Q.** How did the log2 fold change turn out when “UniProt Q9CZT8 (peptide sequence: LVDAICDK, peptide start residue: 179)” was run?
**A.** 0.0775

**Q.** “UniProt Q9CY27 (peptide sequence: SLKDEDVLQK, peptide start residue: 58)” was tested. Which log2 fold change did it give?
**A.** 0.196

**Q.** How did the log2 fold change turn out when “UniProt Q9CZV5 (peptide sequence: HSDPESDFYR, peptide start residue: 129)” was run?
**A.** -0.301

**Q.** How did the log2 fold change turn out when “UniProt Q9CX80 (peptide sequence: FFVNFPSAK, peptide start residue: 49)” was run?
**A.** -0.375

**Q.** For “UniProt Q9CWI3 (peptide sequence: LLNDTSKPVGLLLSER, peptide start residue: 170)”, which log2 fold change is on record?
**A.** 0.252

**Q.** How did the log2 fold change turn out when “UniProt Q9CYT6 (peptide sequence: TYKNPSLR, peptide start residue: 286)” was run?
**A.** 0.22

**Q.** Which log2 fold change does the source give for “UniProt Q9CZU3 (peptide sequence: DLRPVDNR, peptide start residue: 747)” here?
**A.** 0.197

**Q.** Which log2 fold change does the source give for “UniProt Q9D0M1 (peptide sequence: IYVMATHGILSAEAPR, peptide start residue: 280)” here?
**A.** 0.3

**Q.** “UniProt Q9CRA5 (peptide sequence: KVQEAVLDKWVNDPHR, peptide start residue: 216)” was tested. Which log2 fold change did it give?
**A.** -1.49

**Q.** “UniProt Q9CZW5 (peptide sequence: NREPLMPSPQFIK, peptide start residue: 249)” was tested. Which log2 fold change did it give?
**A.** -0.164

**Q.** How did the log2 fold change turn out when “UniProt Q9CR68 (peptide sequence: VPDFSDYR, peptide start residue: 85)” was run?
**A.** -0.185

**Q.** “UniProt Q9CYC6 (peptide sequence: LYIIPGVPK, peptide start residue: 174)” was tested. Which log2 fold change did it give?
**A.** -0.391

**Q.** How did the log2 fold change turn out when “UniProt Q9CZT6 (peptide sequence: KISDILAK, peptide start residue: 74)” was run?
**A.** 0.0718

**Q.** How did the log2 fold change turn out when “UniProt Q9D0M0 (peptide sequence: VLHVSLQSLLHKEESLGPK, peptide start residue: 265)” was run?
**A.** 0.0632

**Q.** How did the log2 fold change turn out when “UniProt Q9CR61 (peptide sequence: DYCAHYLIR, peptide start residue: 57)” was run?
**A.** 0.0569

**Q.** For “UniProt Q9D0P8 (peptide sequence: EMDNYEAPFHCLAK, peptide start residue: 156)”, which log2 fold change is on record?
**A.** 0.355

**Q.** “UniProt Q9CZB3 (peptide sequence: TYIQTAGLR, peptide start residue: 275)” was tested. Which log2 fold change did it give?
**A.** 0.276

**Q.** For “UniProt Q9D0L8 (peptide sequence: LVCADIADISMK, peptide start residue: 212)”, which log2 fold change is on record?
**A.** 0.308

**Q.** Which log2 fold change does the source give for “UniProt Q9CZS1 (peptide sequence: LFINNEWHDAVSK, peptide start residue: 41)” here?
**A.** 0.167

**Q.** With “UniProt Q9CYR6 (peptide sequence: LAQELDDGKGK, peptide start residue: 390)” as the target, how does the log2 fold change read?
**A.** -0.452

**Q.** How did the log2 fold change turn out when “UniProt Q9D0F6 (peptide sequence: FISEDRLPHLLLYGPPGTGK, peptide start residue: 46)” was run?
**A.** -0.581

**Q.** For “UniProt Q9CY34 (peptide sequence: VDEYIKR, peptide start residue: 176)”, which log2 fold change is on record?
**A.** 0.426

**Q.** How did the log2 fold change turn out when “UniProt Q9CS42 (peptide sequence: MVLVGDVK, peptide start residue: 205)” was run?
**A.** 0.102

**Q.** For “UniProt Q9CRT8 (peptide sequence: FFCFQVLEHQVK, peptide start residue: 54)”, which log2 fold change is on record?
**A.** 0.255

**Q.** With “UniProt Q9CYX7 (peptide sequence: LMSTVSKK, peptide start residue: 201)” as the target, how does the log2 fold change read?
**A.** -0.27

**Q.** For “UniProt Q9D0V8 (peptide sequence: GICELENYHYR, peptide start residue: 118)”, which log2 fold change is on record?
**A.** -0.888

From the supplement of paper PMC12819154, “High-throughput peptide-centric local stability assay extends protein–ligand identification to membrane proteins, tissues and bacteria” (Nature Structural & Molecular Biology, 2025)
